# Reference: article PMC7665181
# Sequences of proteins named here, by UniProt entry; tags and fusion partners are left off.
# UniProt O00487: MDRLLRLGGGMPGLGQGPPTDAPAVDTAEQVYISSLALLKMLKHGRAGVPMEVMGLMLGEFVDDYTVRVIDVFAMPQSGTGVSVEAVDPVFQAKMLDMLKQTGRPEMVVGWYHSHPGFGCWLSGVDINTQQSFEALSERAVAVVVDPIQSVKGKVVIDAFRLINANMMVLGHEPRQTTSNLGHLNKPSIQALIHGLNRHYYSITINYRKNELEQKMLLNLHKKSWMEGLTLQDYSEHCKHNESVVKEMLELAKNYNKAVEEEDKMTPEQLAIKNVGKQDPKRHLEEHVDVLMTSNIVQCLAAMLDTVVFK
# UniProt P54727: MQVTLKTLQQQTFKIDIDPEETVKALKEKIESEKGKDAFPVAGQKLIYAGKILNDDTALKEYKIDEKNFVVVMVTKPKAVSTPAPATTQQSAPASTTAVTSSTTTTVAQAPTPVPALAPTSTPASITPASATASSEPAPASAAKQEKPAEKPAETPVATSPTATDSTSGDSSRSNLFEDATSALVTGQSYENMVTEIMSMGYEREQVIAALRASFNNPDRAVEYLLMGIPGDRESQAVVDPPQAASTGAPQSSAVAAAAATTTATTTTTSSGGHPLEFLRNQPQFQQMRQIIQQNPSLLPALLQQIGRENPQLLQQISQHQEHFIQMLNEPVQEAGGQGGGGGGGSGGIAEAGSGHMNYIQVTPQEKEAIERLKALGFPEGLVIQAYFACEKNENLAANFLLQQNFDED
# Results are given in words; binding and its absence hold for the method and conditions named. In cells and extracts the contact can be indirect. Some results given as binding are weak or reduced against the parent protein; the word gives no strength.
# Target: FLAG-tagged siRNA-resistant wild-type PSMD14 (wtPSMD14^R) (UniProt O00487)
# Assay: co-IP; FLAG-tagged PSMD14^R (wild type or JAMM-motif mutant) expressed in U2OS cells was immunoprecipitated; co-precipitated proteins detected (Supplementary Fig. 7)
substance,measurement,value
RAD23B (from UniProt P54727 1-409),binding,binds
